PMC11093223, “Cargo selective vesicle tethering: The structural basis for binding of specific cargo proteins by the Golgi tether component TBC1D23” (Science Advances, 2024)

Chains of the proteins cited; added tags and fusions are not shown.
UniProt Q13439: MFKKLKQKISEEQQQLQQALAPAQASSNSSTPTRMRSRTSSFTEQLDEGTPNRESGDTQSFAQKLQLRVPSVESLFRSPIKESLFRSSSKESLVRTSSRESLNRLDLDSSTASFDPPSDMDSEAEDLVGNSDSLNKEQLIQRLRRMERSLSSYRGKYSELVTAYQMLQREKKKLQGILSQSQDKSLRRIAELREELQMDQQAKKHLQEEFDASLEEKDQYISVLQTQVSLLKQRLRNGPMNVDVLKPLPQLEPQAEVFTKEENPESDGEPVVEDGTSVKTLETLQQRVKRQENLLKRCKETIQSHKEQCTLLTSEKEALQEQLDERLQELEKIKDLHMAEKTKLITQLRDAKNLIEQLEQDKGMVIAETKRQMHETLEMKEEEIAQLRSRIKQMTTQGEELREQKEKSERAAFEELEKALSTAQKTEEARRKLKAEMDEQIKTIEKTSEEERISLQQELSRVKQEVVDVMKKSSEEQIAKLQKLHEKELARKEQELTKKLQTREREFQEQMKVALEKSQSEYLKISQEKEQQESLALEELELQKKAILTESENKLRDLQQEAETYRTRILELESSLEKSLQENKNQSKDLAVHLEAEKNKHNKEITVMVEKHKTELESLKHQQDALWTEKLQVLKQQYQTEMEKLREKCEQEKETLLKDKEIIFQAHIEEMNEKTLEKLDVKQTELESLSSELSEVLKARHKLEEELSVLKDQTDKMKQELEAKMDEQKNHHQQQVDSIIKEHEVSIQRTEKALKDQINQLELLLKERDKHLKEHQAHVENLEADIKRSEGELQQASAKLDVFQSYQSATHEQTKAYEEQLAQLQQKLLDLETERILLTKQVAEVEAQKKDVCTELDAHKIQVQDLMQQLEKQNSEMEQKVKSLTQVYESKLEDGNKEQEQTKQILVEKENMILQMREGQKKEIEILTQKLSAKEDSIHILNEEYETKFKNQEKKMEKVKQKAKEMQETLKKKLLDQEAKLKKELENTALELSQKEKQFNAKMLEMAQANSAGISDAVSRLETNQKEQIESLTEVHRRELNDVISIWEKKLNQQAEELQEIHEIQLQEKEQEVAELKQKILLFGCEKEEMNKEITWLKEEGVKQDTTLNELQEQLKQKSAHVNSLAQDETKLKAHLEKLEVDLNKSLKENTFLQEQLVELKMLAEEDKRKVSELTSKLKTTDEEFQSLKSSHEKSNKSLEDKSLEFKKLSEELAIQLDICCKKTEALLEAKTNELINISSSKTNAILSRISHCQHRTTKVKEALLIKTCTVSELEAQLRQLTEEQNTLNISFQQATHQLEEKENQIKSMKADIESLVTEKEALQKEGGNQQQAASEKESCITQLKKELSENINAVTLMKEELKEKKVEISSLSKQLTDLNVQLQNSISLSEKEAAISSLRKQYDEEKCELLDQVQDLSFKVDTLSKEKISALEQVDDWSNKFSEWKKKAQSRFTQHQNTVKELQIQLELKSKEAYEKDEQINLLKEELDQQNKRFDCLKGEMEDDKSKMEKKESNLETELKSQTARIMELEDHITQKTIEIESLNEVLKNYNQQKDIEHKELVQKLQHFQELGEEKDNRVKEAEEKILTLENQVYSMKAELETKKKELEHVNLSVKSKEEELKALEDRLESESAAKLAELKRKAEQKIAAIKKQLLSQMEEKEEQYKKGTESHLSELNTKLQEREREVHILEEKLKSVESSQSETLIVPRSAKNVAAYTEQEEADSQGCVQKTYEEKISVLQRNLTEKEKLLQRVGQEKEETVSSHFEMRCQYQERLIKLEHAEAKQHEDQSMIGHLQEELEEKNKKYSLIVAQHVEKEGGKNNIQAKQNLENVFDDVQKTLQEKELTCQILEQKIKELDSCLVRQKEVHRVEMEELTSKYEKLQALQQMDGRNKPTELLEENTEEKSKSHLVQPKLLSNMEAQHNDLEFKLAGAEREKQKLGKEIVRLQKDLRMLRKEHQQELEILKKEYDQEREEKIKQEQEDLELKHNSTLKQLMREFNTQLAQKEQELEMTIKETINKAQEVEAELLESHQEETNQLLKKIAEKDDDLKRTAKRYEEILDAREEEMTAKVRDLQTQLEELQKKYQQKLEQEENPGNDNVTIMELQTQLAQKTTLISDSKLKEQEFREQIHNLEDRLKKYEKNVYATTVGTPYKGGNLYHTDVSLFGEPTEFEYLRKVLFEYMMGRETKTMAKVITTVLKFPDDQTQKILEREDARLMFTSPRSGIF

Target: T1, GST-TBC1D23 (1 to 513) (mouse) (UniProt Q8K0F1)
T1 sequence: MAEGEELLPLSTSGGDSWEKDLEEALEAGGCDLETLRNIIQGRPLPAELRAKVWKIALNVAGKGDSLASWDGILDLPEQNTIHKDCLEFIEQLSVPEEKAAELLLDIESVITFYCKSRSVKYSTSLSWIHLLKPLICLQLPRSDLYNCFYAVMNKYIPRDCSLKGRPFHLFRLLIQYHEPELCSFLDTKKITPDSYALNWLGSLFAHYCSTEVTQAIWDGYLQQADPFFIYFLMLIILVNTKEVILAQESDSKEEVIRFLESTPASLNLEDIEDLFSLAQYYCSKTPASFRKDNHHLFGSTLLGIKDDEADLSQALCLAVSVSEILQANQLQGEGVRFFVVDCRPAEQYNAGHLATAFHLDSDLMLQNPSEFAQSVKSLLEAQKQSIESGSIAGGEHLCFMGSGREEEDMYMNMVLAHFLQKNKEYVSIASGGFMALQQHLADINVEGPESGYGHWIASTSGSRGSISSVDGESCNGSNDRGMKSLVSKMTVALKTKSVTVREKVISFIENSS
Experiment: affinity purification with mass spectrometry; GST-TBC1D23 (1 to 513) or (514 to 684) on glutathione-Sepharose beads, 2 h with precleared 293T cell lysate (25 mM tris-HCl pH 7.4, 150 mM NaCl, 1 mM EDTA, 1% Triton X-100), elution with 1.5 M NaCl, MS; only the target purified

binding: binds
Substance: golgin-245 (endogenous, 293T cell lysate) (from UniProt Q13439 1-2230)

Results are given in words; binding and its absence hold for the method and conditions named. In cells and extracts the contact can be indirect. A yes stands for co-enrichment or nearness to the bait. Other partners may have been found. Sequences can lack the tags named with a protein.
